Laboratory results: PubChem BioAssay AID686943 (Drosophila RNAi Screening Center, 2013)
In all, the deposit lists about 23,000 reagents; shown is an unselected part of those that have a named target and a result. 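Extra replicates exist only for a retested subset of genes; insulin dose and duration not given; both raised and lowered dpERK matter.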 Not all columns of the deposit are shown. Not stated in the record: the amount of reagent, the time to read-out.

- Test: 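Search across the genome for regulators of signalling from receptor tyrosine kinase to ERK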 (primary screen)
- Cells: Drosophila S2R+ haemocyte-like cells expressing YFP-tagged ERK (Rolled)
- Reagents: long dsRNA against Drosophila genes
- Conditions: insulin stimulation versus unstimulated cells; dose and duration not given
- Detection: 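Per-plate z-scores of phospho-ERK immunostaining normalised to YFP-tagged ERK, measured with and without insulin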
- Scale: replicate 1, z-score of dpERK with insulin: higher = more active ERK per ERK-YFP after insulin

Prosbeta2 (Proteasome beta2 subunit) [SID104191049] scored replicate 1, z-score of dpERK with insulin -1.42.
With knock-down of Hsc70-2 (Heat shock protein 70 cognate 2) [SID104196502] the results were replicate 1, z-score of dpERK with insulin -0.41.
Dop1R2 (Dopamine 1-like receptor 2) [SID104193750] gave replicate 1, z-score of dpERK with insulin 0.25.
For Dop1R2 (Dopamine 1-like receptor 2) [SID104195171], the entry reads replicate 1, z-score of dpERK with insulin 0.2.
With knock-down of CG7110 [SID104182803], the screen gave replicate 1, z-score of dpERK with insulin 0.24.
CG7110 [SID104182804] showed replicate 1, z-score of dpERK with insulin 0.98.
Silencing of Upf3 [SID104183884] came out at: replicate 1, z-score of dpERK with insulin -1.24.
After knock-down of tud (tudor) [SID104184511], the screen gave replicate 1, z-score of dpERK with insulin 0.66.
CG43329 [SID104191464] showed replicate 1, z-score of dpERK with insulin -1.29.
Silencing of CG31229 [SID104193101] resulted in: replicate 1, z-score of dpERK with insulin 0.52.
After knock-down of Polr2I (RNA polymerase II subunit I) [SID104196624] the results were replicate 1, z-score of dpERK with insulin 1.54.
CG15370 [SID104197834] scored replicate 1, z-score of dpERK with insulin -3.71.
With knock-down of CG30479 [SID104186527], the record shows replicate 1, z-score of dpERK with insulin -0.67.
Depletion of Eaf (ELL-associated factor) [SID104184842] gave: replicate 1, z-score of dpERK with insulin -0.09.
Silencing of Eaf (ELL-associated factor) [SID104185844] came out at: replicate 1, z-score of dpERK with insulin 0.97.
Eaf (ELL-associated factor) [SID104201612] showed replicate 1, z-score of dpERK with insulin 0.28.
Against CG33631 [SID104192555], the values are replicate 1, z-score of dpERK with insulin 0.83.
Against twf (twinfilin) [SID104195258], the values are replicate 1, z-score of dpERK with insulin 0.67.
CLIP-190 (Cytoplasmic linker protein 190) [SID104183075] scored replicate 1, z-score of dpERK with insulin 1.28.
Against MED24 (Mediator complex subunit 24) [SID104190736], the entry reads replicate 1, z-score of dpERK with insulin 0.96.
Against CG10912 [SID104185801], the values are replicate 1, z-score of dpERK with insulin 0.04.
Fmo-2 (Flavin-containing monooxygenase 2) [SID104184775] showed replicate 1, z-score of dpERK with insulin -0.21.
Gycalpha99B (Guanylyl cyclase alpha-subunit at 99B) [SID104196482] showed replicate 1, z-score of dpERK with insulin -0.11.
Silencing of PIG-L (Phosphatidylinositol glycan anchor biosynthesis class L) [SID104195369] resulted in: replicate 1, z-score of dpERK with insulin 0.75.
After knock-down of CR42545 (pseudo) [SID104183501] the results were replicate 1, z-score of dpERK with insulin -0.12.
CG32544 [SID104199825] scored replicate 1, z-score of dpERK with insulin 0.08.
After knock-down of Papst2 (PAPS transporter 2) [SID104190716], the screen gave replicate 1, z-score of dpERK with insulin -0.61.
Ca-beta (Ca2+-channel-protein-beta-subunit) [SID104182198] gave replicate 1, z-score of dpERK with insulin 1.2.
For Ca-beta (Ca2+-channel-protein-beta-subunit) [SID104182199], the values are replicate 1, z-score of dpERK with insulin 2.45.
Knock-down of Ca-beta (Ca2+-channel-protein-beta-subunit) [SID104183077] came out at: replicate 1, z-score of dpERK with insulin 1.97.
Against Ca-beta (Ca2+-channel-protein-beta-subunit) [SID104201179], the entry reads replicate 1, z-score of dpERK with insulin 0.09.

3 consecutive reagents already listed:
Eaf (ELL-associated factor) [SID104185844] → replicate 1, z-score of dpERK with insulin: 0.97
Eaf (ELL-associated factor) [SID104201612] → replicate 1, z-score of dpERK with insulin: 0.28
CG33631 [SID104192555] → replicate 1, z-score of dpERK with insulin: 0.83
